No constants are given. Whether binding was seen depends on the method and setting. Binding seen in cells or lysates may run through a third protein. A yes stands for co-enrichment or nearness to the bait. Other partners may have been found. For some assays here: Where a sequence is shown, tags or fusion partners need not be part of it.
T1: FLAG-BirA*-SHLD2 (human) (UniProt Q86V20)
T1 sequence: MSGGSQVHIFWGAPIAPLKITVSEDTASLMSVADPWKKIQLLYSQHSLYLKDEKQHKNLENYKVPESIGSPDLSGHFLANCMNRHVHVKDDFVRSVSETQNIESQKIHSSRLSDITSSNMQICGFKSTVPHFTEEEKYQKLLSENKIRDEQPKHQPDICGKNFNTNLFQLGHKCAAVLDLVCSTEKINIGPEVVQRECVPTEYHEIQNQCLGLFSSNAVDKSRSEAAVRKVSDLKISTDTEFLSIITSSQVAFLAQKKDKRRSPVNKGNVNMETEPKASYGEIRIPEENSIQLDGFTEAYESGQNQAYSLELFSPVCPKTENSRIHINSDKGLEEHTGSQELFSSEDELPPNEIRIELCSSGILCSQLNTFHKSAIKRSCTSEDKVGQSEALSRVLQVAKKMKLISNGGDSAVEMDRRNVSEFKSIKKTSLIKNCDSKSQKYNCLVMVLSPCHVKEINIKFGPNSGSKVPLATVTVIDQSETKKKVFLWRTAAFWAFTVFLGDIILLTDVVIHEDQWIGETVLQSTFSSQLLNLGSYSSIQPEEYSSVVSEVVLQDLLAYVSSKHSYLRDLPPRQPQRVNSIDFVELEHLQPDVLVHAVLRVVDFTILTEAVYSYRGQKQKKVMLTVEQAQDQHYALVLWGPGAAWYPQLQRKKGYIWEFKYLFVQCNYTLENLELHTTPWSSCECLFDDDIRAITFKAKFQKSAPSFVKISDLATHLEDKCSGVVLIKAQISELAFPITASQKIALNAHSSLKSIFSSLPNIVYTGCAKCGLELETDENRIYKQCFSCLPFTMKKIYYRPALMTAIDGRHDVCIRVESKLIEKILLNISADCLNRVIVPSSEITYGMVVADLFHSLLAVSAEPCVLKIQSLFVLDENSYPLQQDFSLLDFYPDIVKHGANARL

Sequences of proteins named here, by UniProt entry; tags and fusion partners are left off.
UniProt Q9UI95: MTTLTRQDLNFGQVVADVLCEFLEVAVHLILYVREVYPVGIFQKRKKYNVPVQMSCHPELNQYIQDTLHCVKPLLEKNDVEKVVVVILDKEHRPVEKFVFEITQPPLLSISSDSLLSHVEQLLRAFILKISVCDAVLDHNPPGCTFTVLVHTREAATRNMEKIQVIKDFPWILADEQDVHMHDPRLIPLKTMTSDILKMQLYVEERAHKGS
UniProt Q14258: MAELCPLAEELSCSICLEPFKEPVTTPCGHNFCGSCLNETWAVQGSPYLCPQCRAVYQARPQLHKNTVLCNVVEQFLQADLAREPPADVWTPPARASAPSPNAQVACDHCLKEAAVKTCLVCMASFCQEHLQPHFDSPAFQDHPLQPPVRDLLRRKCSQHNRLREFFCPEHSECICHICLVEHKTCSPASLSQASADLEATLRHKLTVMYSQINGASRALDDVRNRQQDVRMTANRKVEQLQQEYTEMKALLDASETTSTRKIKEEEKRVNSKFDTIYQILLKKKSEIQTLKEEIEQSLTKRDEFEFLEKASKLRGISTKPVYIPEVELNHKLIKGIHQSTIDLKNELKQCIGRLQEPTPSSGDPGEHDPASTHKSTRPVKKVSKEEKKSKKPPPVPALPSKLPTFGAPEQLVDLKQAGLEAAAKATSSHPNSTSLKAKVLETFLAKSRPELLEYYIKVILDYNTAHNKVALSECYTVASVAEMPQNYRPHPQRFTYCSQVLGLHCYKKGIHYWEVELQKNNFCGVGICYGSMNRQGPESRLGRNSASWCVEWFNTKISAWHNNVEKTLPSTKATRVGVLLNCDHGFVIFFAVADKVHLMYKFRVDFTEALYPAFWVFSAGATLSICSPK
UniProt Q16531: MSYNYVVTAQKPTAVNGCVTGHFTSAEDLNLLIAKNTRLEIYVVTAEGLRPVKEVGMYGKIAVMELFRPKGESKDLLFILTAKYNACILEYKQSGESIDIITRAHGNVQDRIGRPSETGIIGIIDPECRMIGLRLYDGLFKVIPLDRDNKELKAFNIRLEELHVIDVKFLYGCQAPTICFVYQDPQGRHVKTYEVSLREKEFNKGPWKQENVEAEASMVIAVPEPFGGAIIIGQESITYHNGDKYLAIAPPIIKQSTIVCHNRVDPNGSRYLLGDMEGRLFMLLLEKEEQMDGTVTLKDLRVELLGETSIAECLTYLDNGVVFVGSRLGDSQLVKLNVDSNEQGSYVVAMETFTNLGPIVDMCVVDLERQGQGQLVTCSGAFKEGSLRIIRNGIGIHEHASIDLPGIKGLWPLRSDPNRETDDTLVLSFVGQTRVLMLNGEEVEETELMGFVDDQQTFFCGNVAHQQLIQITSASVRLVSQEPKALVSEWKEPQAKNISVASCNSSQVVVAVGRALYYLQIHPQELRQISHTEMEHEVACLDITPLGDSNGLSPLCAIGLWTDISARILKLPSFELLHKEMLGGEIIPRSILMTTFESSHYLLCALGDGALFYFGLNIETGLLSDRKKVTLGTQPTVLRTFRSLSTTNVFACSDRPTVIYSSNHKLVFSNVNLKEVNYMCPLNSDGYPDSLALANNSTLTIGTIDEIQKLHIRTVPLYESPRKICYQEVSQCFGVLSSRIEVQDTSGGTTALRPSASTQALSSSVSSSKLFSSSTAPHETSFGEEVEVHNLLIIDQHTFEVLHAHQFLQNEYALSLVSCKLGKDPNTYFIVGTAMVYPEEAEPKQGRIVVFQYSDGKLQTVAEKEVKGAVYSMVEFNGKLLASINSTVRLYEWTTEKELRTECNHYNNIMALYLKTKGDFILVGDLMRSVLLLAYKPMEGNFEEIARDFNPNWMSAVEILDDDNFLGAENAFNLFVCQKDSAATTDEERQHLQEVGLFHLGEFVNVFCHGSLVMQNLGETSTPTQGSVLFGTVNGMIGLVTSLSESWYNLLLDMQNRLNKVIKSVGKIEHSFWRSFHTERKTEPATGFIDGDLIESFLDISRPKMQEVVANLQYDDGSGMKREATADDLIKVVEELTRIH
UniProt Q7L5N1: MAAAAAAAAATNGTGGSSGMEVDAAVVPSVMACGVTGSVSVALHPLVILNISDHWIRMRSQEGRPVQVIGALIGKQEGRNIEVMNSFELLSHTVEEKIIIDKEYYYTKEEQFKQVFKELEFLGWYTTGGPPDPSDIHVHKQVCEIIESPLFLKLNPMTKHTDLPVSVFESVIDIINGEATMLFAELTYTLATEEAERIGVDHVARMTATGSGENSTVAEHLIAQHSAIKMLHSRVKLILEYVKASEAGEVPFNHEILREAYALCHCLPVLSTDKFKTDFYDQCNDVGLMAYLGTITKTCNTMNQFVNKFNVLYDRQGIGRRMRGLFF
UniProt Q93034: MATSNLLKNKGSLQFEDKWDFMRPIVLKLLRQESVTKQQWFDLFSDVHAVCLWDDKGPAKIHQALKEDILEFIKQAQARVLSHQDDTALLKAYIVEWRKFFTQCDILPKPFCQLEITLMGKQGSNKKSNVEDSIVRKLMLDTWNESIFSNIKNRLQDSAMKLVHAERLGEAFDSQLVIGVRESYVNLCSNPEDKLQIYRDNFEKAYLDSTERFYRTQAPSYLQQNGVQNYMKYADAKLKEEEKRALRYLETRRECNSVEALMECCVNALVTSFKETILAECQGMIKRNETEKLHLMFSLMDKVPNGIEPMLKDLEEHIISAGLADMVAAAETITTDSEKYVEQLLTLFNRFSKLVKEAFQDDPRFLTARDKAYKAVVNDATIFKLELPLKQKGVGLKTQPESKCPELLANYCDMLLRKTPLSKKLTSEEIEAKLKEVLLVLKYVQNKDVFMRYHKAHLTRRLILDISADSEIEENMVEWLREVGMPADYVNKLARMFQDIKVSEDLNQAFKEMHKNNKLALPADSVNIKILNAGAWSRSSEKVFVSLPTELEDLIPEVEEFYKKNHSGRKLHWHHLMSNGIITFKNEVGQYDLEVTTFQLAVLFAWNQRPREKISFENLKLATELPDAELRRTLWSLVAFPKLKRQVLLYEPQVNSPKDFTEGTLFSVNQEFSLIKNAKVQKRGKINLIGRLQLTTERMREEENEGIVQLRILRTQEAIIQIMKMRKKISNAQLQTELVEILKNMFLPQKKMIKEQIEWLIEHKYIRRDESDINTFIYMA
UniProt Q13620: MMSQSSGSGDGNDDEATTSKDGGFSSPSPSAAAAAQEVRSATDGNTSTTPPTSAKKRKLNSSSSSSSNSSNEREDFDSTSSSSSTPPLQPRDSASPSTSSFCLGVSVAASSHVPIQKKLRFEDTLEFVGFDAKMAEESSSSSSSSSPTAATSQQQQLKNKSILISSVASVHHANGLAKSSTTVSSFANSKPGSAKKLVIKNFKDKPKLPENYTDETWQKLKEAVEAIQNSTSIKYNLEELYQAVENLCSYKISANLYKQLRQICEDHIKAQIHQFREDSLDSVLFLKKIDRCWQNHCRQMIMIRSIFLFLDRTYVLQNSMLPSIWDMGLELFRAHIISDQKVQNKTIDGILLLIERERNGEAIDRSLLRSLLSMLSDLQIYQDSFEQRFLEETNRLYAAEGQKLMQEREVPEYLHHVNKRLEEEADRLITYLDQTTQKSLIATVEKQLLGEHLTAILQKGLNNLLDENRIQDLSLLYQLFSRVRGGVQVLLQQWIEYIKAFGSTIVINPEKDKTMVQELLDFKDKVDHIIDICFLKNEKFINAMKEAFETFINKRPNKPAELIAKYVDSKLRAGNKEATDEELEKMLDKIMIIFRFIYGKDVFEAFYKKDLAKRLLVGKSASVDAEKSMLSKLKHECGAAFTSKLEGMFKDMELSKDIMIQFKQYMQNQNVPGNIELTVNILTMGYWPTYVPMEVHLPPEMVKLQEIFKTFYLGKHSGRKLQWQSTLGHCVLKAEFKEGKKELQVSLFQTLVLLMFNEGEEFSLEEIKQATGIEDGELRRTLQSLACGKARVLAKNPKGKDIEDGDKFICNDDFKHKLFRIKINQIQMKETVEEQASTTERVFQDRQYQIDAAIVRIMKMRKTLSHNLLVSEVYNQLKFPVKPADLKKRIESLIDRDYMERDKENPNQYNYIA

B1: chromosome alignment-maintaining phosphoprotein (CHAMP1) (protein, UniProt Q96JM3 1-812)
chain: MEAFQELRKPSARLECDHCSFRGTDYENVQIHMGTIHPEFCDEMDAGGLGKMIFYQKSAKLFHCHKCFFTSKMYSNVYYHITSKHASPDKWNDKPKNQLNKETDPVKSPPLPEHQKIPCNSAEPKSIPALSMETQKLGSVLSPESPKPTPLTPLEPQKPGSVVSPELQTPLPSPEPSKPASVSSPEPPKSVPVCESQKLAPVPSPEPQKPAPVSPESVKATLSNPKPQKQSHFPETLGPPSASSPESPVLAASPEPWGPSPAASPESRKSARTTSPEPRKPSPSESPEPWKPFPAVSPEPRRPAPAVSPGSWKPGPPGSPRPWKSNPSASSGPWKPAKPAPSVSPGPWKPIPSVSPGPWKPTPSVSSASWKSSSVSPSSWKSPPASPESWKSGPPELRKTAPTLSPEHWKAVPPVSPELRKPGPPLSPEIRSPAGSPELRKPSGSPDLWKLSPDQRKTSPASLDFPESQKSSRGGSPDLWKSSFFIEPQKPVFPETRKPGPSGPSESPKAASDIWKPVLSIDTEPRKPALFPEPAKTAPPASPEARKRALFPEPRKHALFPELPKSALFSESQKAVELGDELQIDAIDDQKCDILVQEELLASPKKLLEDTLFPSSKKLKKDNQESSDAELSSSEYIKTDLDAMDIKGQESSSDQEQVDVESIDFSKENKMDMTSPEQSRNVLQFTEEKEAFISEEEIAKYMKRGKGKYYCKICCCRAMKKGAVLHHLVNKHNVHSPYKCTICGKAFLLESLLKNHVAAHGQSLLKCPRCNFESNFPRGFKKHLTHCQSRHNEEANKKLMEALEPPLEEQQI
B2: SHLD2 (endogenous) (protein, UniProt Q86V20-2 1-904)
chain: T1 sequence

Biological target: BirA*-Flag-REV7 (human) (UniProt Q9UI95)
Experiment: proximity labelling; BioID: BirA*-REV7 stably expressed in HEK293 T-REx, 50 uM biotin, with or without NCS (150 ng/ml); RIPA lysis, streptavidin-sepharose, MS; triplicate

Molecule | binding
B1 | binds
B2 | binds

Biological target: T1, FLAG-BirA*-SHLD2 (human)
Experiment: proximity labelling; BioID: FLAG-BirA*-SHLD2 transiently transfected in HEK293-T, 50 uM biotin, with or without NCS; RIPA lysis, streptavidin-sepharose, MS

Molecule | binding
E3 Ubiquitin ligase TRIM25 (from UniProt Q14258 1-630) | binds
DDB1 (from UniProt Q16531 1-1140) | binds
COPS6 (from UniProt Q7L5N1 1-327) | binds
CUL5 (from UniProt Q93034 1-780) | binds
COPS4 (from UniProt Q9BT78 1-406) | binds
REV7 (endogenous) (from UniProt Q9UI95 1-211) | binds
CUL4B (from UniProt Q13620 1-913) | binds

Biological target: Flag-REV7 (human) (UniProt Q9UI95)
Experiment: affinity purification with mass spectrometry; Flag-REV7 stably expressed in HEK293 Flp-In/T-REx as bait; extracts of cells with or without neocarzinostatin (NCS); triplicate; SAINTexpress scoring

Molecule | binding
B1 | binds
B2 | binds
